Assay results published in patent publication US20230125500A1, “ANGIOSTATIN NEUTRALIZING PEPTIDES DERIVED FROM ATP SYNTHASE ALPHA SUBUNIT” (The Governors of the University of Alberta, priority 2021, published 2023).
Results are given in words; binding and its absence hold for the method and conditions named. In cells and extracts the contact can be indirect. Here binding means that the protein was enriched with, or labelled near, the bait; the list need not be complete.

Sequences of proteins named here, by UniProt entry; tags and fusion partners are left off. Residues count along the entry.
UniProt P00747, residues 99-459: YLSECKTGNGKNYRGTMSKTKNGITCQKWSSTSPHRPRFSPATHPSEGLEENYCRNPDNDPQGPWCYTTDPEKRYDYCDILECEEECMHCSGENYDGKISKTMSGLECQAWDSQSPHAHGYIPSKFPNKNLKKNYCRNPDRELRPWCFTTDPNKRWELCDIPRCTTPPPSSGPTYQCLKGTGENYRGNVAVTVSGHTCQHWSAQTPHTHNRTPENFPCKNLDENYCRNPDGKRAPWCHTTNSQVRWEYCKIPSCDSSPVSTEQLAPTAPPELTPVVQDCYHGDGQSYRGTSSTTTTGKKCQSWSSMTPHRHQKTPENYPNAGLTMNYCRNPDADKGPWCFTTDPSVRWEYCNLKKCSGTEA

B1: Alpha peptide 1 (peptide)
peptide: TGTAEMSSILEER
B2: Alpha peptide 2 (peptide)
peptide: TSIAIDTIINQK
B3: Alpha peptide 3 (peptide)
peptide: AVDSLVPIGR

molecular target: angiostatin K1-4 (UniProt P00747); assay: co-immunoprecipitation with angiostatin K1-4, mass spectrometry

binding	Binder
binds	B1
binds	B2
binds	B3
